# Assay results from PubChem BioAssay AID504834 (National Center for Advancing Translational Sciences (NCATS), 2011).
# The whole screen tested about 320,000 compounds, of which about 22,000 (6.9%) were called active. Inconclusive results, whose numbers are uncertain, are shown with a selection of clear calls. Calls follow the shape of the dose curve; as a rule, active = well fitted inhibition curve with a large enough effect; inconclusive = small, poorly fitted or top-dose-only effect, or another doubt; inactive = no such curve, though single readings can be large or run the other way. A potency beside an inconclusive call is a rough fit, not a confirmed value.
# Experiment: Primary qHTS for delayed death inhibitors of the malarial parasite plastid, 96 hour incubation
# Conditions: P. falciparum luciferase reporter growth; series mostly up to 28.7 µM; activity change, negative = inhibition: at the top concentration
# In short: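 Cell-based qHTS: luciferase-tagged P. falciparum in erythrocytes (2% hematocrit, 0.05% parasitemia final) incubated with compounds for 96 hours, 37 C, 5% CO2; luciferase detection reagent then added and luminescence measured.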
# % is scaled to controls: 0 for no effect and ±100 for the full control effect; potency is read from the fitted curve at half-maximal effect.
Compound,Potency,"activity change, negative = inhibition"
COc1ccc(NC(=O)c2ccc(Cl)c(S(=O)(=O)N3CC(C)OC(C)C3)c2)cn1 (stereo not drawn),active: 10.4 µM,
COc1ccc(Cc2nnc(N/N=C(\C)c3ccccc3)[nH]c2=O)cc1OC,"inconclusive: 11.7 µM [inhibitor, single point]",
Cc1nn(-c2ccccc2)c(NC(=O)C(C)C)c(-c2ccccc2)c1=O,,inactive: 10.6%
CC(=O)Cc1nsc(NC(=O)c2ccc(-c3ccc(Cl)c(C(F)(F)F)c3)o2)n1,,inactive: 20.7%
OCCOCCN1CCN(C(c2ccccc2)c2ccc(Cl)cc2)CC1 (stereo not drawn),"inconclusive: 10.4 µM [inhibitor, partial curve]",
COc1ccc(-c2nnc(SCC(=O)N3CCCc4ccccc43)o2)cc1OC,active: 11.7 µM,
CCOC(=O)C(NC(=O)CC)(Nc1sc(C)c(CC)c1C#N)C(F)(F)F (stereo not drawn),,inactive: 5.02%
O=[N+]([O-])c1cc([N+](=O)[O-])c2cccnc2c1Oc1ccccc1O,"inconclusive: 18.5 µM [inhibitor, single point]",
C=CCn1c(SCC(=O)c2c(N)n(C)c(=O)n(C)c2=O)nnc1-c1ccccc1F,"inconclusive: 2.62 µM [inhibitor, single point]",
COc1ccc(CCNC(=O)c2ccccc2NC(=O)CN2CCN(c3ccccc3O)CC2)cc1,active: 7.38 µM,
O=C(NCc1ccc2c(c1)OCO2)C1CCCN1S(=O)(=O)c1ccc(F)cc1 (stereo not drawn),,inactive: 34.3%
C/C(=N\NC(=O)CSCc1ccccc1Br)c1cccc([N+](=O)[O-])c1,"inconclusive: 18.5 µM [inhibitor, single point]",
COc1ccc(OC)c(S(=O)(=O)N(C)CC(=O)N2CCN(c3cccc(Cl)c3)CC2)c1,,inactive: 7.73%
O=[N+]([O-])c1ccc(-c2cn(-c3ccccc3F)c(=S)[nH]2)cc1,"inconclusive: 9.28 µM [inhibitor, partial curve, poor fit]",
CCOC(=O)C(Cc1ccccc1)c1ccnc2nc(N)nn12 (stereo not drawn),,inactive: -30.5% [at 5.75 µM]
Clc1cccc2c3c([nH]c12)CCNC3,active: 0.586 µM,
CC(NC(=O)/C(=C/c1ccc2c(c1)OCO2)NC(=O)c1cccc([N+](=O)[O-])c1)C(=O)O (stereo not drawn),"inconclusive: 4.65 µM [inhibitor, partial curve]",
C=CCNC(=O)c1c(N)n(Cc2ccco2)c2nc3ccccc3nc12,,inactive: 35%
Cc1cc(NS(=O)(=O)c2ccc(NC(=O)/C=C/c3ccco3)cc2)nc(C)n1,"inconclusive: 0.465 µM [inhibitor, full curve, poor fit]",
Cc1cc(-c2ccccc2)c2c3c(c(-c4ccccc4)n2n1)c(=O)n(C)c(=O)n3C,"inconclusive: 18.5 µM [inhibitor, partial curve, poor fit]",
Cc1ccc(OS(=O)(=O)c2ccccc2)c(/C=N/N=C2\NC(=O)C(C)S2)c1 (stereo not drawn),"inconclusive: 14.7 µM [inhibitor, partial curve, poor fit]",
CCOc1ccc(OCc2ccc(C(=O)OCc3ccccn3)o2)cc1,active: 10.4 µM,
Cc1ccccc1/C=C/c1cccc[n+]1C,"inconclusive: 11.7 µM [inhibitor, single point]",
COc1ccccc1NC(=O)CSc1nnc(-c2ccco2)n1Cc1ccco1,"inconclusive: 14.7 µM [inhibitor, single point]",
CCN(CC)c1ccc(NC(=O)c2cc(Cl)ccc2OC)cc1,"inconclusive: 10.4 µM [inhibitor, single point]",

Compound,Potency,"activity change, negative = inhibition"
COc1ccc(C(C(=O)NCC2CCCO2)N(Cc2cccs2)C(=O)c2snc(C(N)=O)c2N)cc1 (stereo not drawn),"inconclusive: 6.57 µM [inhibitor, partial curve, poor fit]",
COc1ccccc1CNc1cc(CSc2ccc(Cl)cc2)nc(C)n1,"inconclusive: 14.7 µM [inhibitor, partial curve, poor fit]",
O=c1[nH]nc(SCCS(=O)(=O)c2ccc(F)cc2)n1-c1ccc2c(c1)OCCO2,,inactive: 5.65%
CCOC(=O)Cc1csc(NS(=O)(=O)c2ccc([N+](=O)[O-])cc2)n1,"inconclusive: 18.5 µM [inhibitor, single point]",
CCOC(=O)C1=C(C)N=c2s/c(=C/c3ccccc3)c(=O)n2C1c1ccc(OC)c(OC)c1 (stereo not drawn),"inconclusive: 4.15 µM [inhibitor, full curve]",
N#CC(C(=S)Nc1ccccc1)c1nc2ccccc2[nH]1 (stereo not drawn),active: 4.65 µM,
CCOc1cc(CNCc2cccnc2)cc(Br)c1OCC(N)=O,"inconclusive: 20.8 µM [inhibitor, partial curve, poor fit]",
O=C(NCC1CCCO1)C(C(=O)c1ccccc1)n1ccccc1=O (stereo not drawn),"inconclusive: 0.0928 µM [inhibitor, full curve, poor fit]",
CCCCn1c(=O)c(C(=O)NCc2ccco2)c(O)c2ccccc21,,inactive: 43.5%
CC(=O)Nc1cccc(NC(=O)c2c(-c3c(Cl)cccc3Cl)noc2C)c1,"inconclusive: 18.5 µM [inhibitor, single point]",
Cc1nc2cc(NS(=O)(=O)c3c(C)c(C)cc(C)c3C)ccc2s1,"inconclusive: 16.5 µM [inhibitor, single point]",
Cc1ccc(-n2c(C)cc(C(=O)Cn3nc(C(=O)O)c4ccccc4c3=O)c2C)cc1,"inconclusive: 18.5 µM [inhibitor, single point]",
Cc1cccc2c1-c1sc(C(=O)Nc3nccs3)cc1CO2,active: 8.28 µM,
O=C(/C=C/c1ccccc1Cl)N1CCCN(C(=O)/C=C/c2ccccc2Cl)CC1,,inactive: -17%
CCCCCN(C(=O)CCC(=O)OCCOc1ccc(OCC)cc1)c1c(N)n(CCCC)c(=O)[nH]c1=O,"inconclusive: 18.5 µM [inhibitor, single point]",
CCN(CC)CCCCCC(=O)Nc1ccccc1C(=O)Nc1ccccc1,active: 10.4 µM,
N#C/C(=C\Nc1ccc2cn[nH]c2c1)c1nc(-c2ccc(Cl)cc2)cs1,active: 4.15 µM,
CCOc1cccc2c1OC1(C)CC2NC(=O)N1c1cccc(C(=O)N2CCN(c3ccccn3)CC2)c1 (stereo not drawn),"inconclusive: 10.4 µM [inhibitor, single point]",
CC(=O)Oc1c(C)c(C)c2c(c1C)CCC(C)(CCCC(C)CCCC(C)CCCC(C)C)O2 (stereo not drawn),,inactive: 110%
O=C(O)CCC(=O)N1CCN(S(=O)(=O)c2cccs2)CC1,,inactive: 8.11%
Cc1ccc(NC(=O)CCN2CCC(C)CC2)cc1,active: 13.1 µM,
CN(C)S(=O)(=O)c1ccc(NC(=O)CNc2cc(S(=O)(=O)N3CCCC3)ccc2OCC(F)(F)F)cc1,active: 13.1 µM,
COc1ccc(CN(C)C(=O)C2CCN(C(=O)Nc3ccccc3)CC2)cc1,"inconclusive: 9.28 µM [inhibitor, partial curve, poor fit]",
O=C(NCCN1CCCC1=O)C1CCC(=O)N(CCc2ccc(Cl)cc2)C1 (stereo not drawn),"inconclusive: 18.5 µM [inhibitor, single point]",
O=c1c2ccccc2nc(/C=C/c2ccc3c(c2)OCO3)n1-c1cccc(O)c1,"inconclusive: 4.15 µM [inhibitor, single point]",

# Filtered by structure: those above with bromine.
Compound,Potency,"activity change, negative = inhibition"
C/C(=N\NC(=O)CSCc1ccccc1Br)c1cccc([N+](=O)[O-])c1,"inconclusive: 18.5 µM [inhibitor, single point]",
CCOc1cc(CNCc2cccnc2)cc(Br)c1OCC(N)=O,"inconclusive: 20.8 µM [inhibitor, partial curve, poor fit]",

# Four neighbouring records from above, quoted:
Compound,Potency,"activity change, negative = inhibition"
O=C(/C=C/c1ccccc1Cl)N1CCCN(C(=O)/C=C/c2ccccc2Cl)CC1,,inactive: -17%
CCCCCN(C(=O)CCC(=O)OCCOc1ccc(OCC)cc1)c1c(N)n(CCCC)c(=O)[nH]c1=O,"inconclusive: 18.5 µM [inhibitor, single point]",
CCN(CC)CCCCCC(=O)Nc1ccccc1C(=O)Nc1ccccc1,active: 10.4 µM,
N#C/C(=C\Nc1ccc2cn[nH]c2c1)c1nc(-c2ccc(Cl)cc2)cs1,active: 4.15 µM,

# Next entries.

Compound,Potency,"activity change, negative = inhibition"
CC(C)(C)n1nnnc1C(c1ccccc1)N1CCc2ccccc2C1 (stereo not drawn),"inconclusive: 11.7 µM [inhibitor, single point]",
NC(=O)c1ccc(NC(=O)CSc2nnc(-c3ccccn3)n2N)cc1,"inconclusive: 13.1 µM [inhibitor, single point]",
O=C1OCC/C1=C\c1ccc(O)cc1,,inactive: 30.8%
COC(=O)c1cccnc1NC(=S)NNC(=O)c1ccccc1,"inconclusive: 18.5 µM [inhibitor, single point]",
CCN(CC)CCN(C)Cc1nc(C(c2ccccc2)c2ccccc2)no1,active: 9.28 µM,
O=C(OCc1nc2ccccc2c(=O)[nH]1)c1cccs1,,inactive: 5.87%
CCSc1nnc(SCC(=O)NC2CCCCC2)s1,,inactive: 17.3%
COc1ccc(C(=O)Cn2c(=N)n(C)c3ccccc32)cc1,,inactive: -6.73%
O=[N+]([O-])c1ccc(SCCc2ccccn2)cc1,,inactive: 16.5%
O=C(CSc1n[nH]c(=O)n1Cc1ccccc1)Nc1ccc(F)c(F)c1F,,inactive: -0.936%
CCCOc1ccc(NC(=O)CC2C(=O)N(C)C(=S)N2Cc2cccs2)cc1 (stereo not drawn),"inconclusive: 10.4 µM [inhibitor, partial curve]",
CCn1nnnc1NC(=O)c1cccc(OC)c1,,inactive: 3.04%
CN1CCN(S(=O)(=O)c2ccc(N(C)Cc3ccc(OC(F)F)cc3)c([N+](=O)[O-])c2)CC1,"inconclusive: 13.1 µM [inhibitor, single point]",
CCCCCCOc1ccc(/C(C)=N/NC2=NCCN2)cc1[N+](=O)[O-],,inactive: 27.9%
CC1CCCCN1C(=O)/C=C/c1ccccc1[N+](=O)[O-] (stereo not drawn),,inactive: 0.295%
Cn1c(=O)c(C(=O)NNC(=O)c2ccccc2Br)c(O)c2ccccc21,active: 2.08 µM,
O=C(CNS(=O)(=O)c1c(Cl)cccc1Cl)N1CCCCCC1,"inconclusive: 13.1 µM [inhibitor, partial curve, poor fit]",
COc1ccc(C2C(C(=O)N3CCN(c4ccc(OC)cc4)CC3)c3ccccc3C(=O)N2C)cc1 (stereo not drawn),,inactive: 3.2%
Cc1ccccc1NC(=O)CN(C)S(=O)(=O)c1cccc2cccnc12,,inactive: -1.16%
COc1ccc(NC(=O)COc2ccc(/C=N/n3c(C)nnc3C)cc2OC)cc1,active: 11.7 µM,
CCC/C(O)=C1\C(=O)CC(C)(C)CC1=Nc1ccc(OC)cc1,"inconclusive: 13.1 µM [inhibitor, partial curve, poor fit]",
CN(C)CC(=O)N1CCc2ccccc2C1,"inconclusive: 0.233 µM [inhibitor, partial curve, poor fit]",
O=C(COc1ccc(Cl)cc1[N+](=O)[O-])N1CCCCCC1,"inconclusive: 10.4 µM [inhibitor, single point]",
